This note sets out measurements from article PMC5333157.

Amino acid sequences for entries named in this document (tags omitted). A change or cut given only in a name is not applied to a line headed by its entry.
UniProt Q05923: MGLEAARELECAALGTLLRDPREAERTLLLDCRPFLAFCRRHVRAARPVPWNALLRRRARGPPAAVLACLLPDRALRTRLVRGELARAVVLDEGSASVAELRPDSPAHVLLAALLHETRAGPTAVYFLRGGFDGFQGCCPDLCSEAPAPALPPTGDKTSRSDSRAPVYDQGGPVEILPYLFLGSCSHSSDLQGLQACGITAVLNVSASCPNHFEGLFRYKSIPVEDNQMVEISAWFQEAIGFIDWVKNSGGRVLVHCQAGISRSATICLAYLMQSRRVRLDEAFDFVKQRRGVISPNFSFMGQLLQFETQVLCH
UniProt P31152: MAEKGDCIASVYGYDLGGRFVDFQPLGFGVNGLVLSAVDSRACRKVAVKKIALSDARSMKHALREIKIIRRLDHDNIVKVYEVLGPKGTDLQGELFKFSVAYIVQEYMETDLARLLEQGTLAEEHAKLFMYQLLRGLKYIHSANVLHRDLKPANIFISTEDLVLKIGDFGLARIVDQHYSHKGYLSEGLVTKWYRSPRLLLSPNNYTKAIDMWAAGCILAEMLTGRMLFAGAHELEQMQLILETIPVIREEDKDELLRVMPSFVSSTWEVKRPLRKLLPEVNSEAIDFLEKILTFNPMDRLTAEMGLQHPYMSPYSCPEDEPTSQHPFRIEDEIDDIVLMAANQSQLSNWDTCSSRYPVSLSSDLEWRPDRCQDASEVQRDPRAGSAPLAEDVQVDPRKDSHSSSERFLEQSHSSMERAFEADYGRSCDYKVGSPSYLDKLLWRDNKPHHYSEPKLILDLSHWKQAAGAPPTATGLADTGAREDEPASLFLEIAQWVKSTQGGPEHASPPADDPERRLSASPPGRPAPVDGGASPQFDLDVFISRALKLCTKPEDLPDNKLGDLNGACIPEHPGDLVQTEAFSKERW
UniProt Q16659: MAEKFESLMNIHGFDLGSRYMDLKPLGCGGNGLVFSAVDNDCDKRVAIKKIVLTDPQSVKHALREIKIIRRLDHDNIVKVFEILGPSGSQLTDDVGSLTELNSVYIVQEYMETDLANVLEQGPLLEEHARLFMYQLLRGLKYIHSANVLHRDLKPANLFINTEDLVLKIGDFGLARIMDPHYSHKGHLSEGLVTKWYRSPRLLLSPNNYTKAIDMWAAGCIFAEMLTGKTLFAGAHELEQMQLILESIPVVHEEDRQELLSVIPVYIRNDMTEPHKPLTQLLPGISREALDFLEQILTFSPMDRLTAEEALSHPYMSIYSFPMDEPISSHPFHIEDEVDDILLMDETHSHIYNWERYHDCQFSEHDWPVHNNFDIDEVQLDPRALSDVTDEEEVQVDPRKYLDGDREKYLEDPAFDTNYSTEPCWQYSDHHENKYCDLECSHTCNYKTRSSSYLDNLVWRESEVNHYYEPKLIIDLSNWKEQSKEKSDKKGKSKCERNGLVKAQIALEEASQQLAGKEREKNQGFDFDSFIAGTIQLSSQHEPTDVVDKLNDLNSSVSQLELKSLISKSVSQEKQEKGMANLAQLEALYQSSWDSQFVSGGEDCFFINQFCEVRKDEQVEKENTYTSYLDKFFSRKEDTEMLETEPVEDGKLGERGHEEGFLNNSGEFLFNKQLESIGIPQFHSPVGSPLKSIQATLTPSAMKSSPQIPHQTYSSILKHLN

These are yes or no findings as the source states them, for the method shown. For some assays here: Binding seen in cells or lysates may run through a third protein. For some assays here: Binding calls can cover weak binding; strength is not graded here.

Test [1] has as its target DUSP2 mutant lacking a functional KIM (DUSP2KIM), GAL4 DNA-binding domain fusion (human) (UniProt Q05923). Put plainly: two-hybrid; GAL4 activation domain fusions of ERK3, ERK4 or ERK2 (pGADT7, Y187) mated with GAL4 DNA-binding domain fusions of MKPs (pGBKT7, PJ69-2A); growth on SD medium lacking leucine, tryptophan, alanine and histidine.
Test [2] has as its target myc-tagged wild-type ERK4 (ERK4wt) (UniProt P31152). Put plainly: co-IP; NCI-H1299 cells co-transfected with FLAG-tagged ERK3 or myc-tagged ERK4 and tagged DUSP2CS; anti-FLAG or anti-myc immunoprecipitation; DUSP2 detected with a DUSP2 specific antibody.
In test [3] the target is myc-tagged ERK4 mutant in which the FRIEDE motif was rendered non-functional (ERK4I330K) (UniProt P31152). The test is described as above.
Test [4] addresses myc-tagged common-docking site ERK4 mutant (ERK4D320N) (UniProt P31152). The description is as above.
Test [5] concerns the target myc-tagged wild-type ERK4 (ERK4wt) (UniProt P31152). The experiment in a line: co-IP; HeLa cells co-transfected with myc-tagged ERK4 and HA-tagged DUSP2; anti-myc immunoprecipitation; DUSP2 visualized with anti-HA.
The target in test [6] is myc-tagged catalytically inactive mutant of DUSP2 (DUSP2CS-Myc) (human) (UniProt Q05923). Put plainly: co-IP; NCI-H1299 cells transfected with myc-tagged DUSP2; anti-Myc immunoprecipitation; endogenous ERK3 detected by Western blot (clone 4C11). Background: A western blot detects proteins with antibodies after separation by electrophoresis.
Test [7] deals with myc-tagged wild-type DUSP2 (human) (UniProt Q05923). The test is described as above.
Test [8] concerns the target HA-tagged wild-type DUSP2 (DUSP2-HA) (human) (UniProt Q05923). Put plainly: co-IP; HEK-293 cells transfected with HA-tagged DUSP2; anti-HA immunoprecipitation; endogenous ERK4 and ERK2 detected by Western blot.
Test [9] concerns the target HA-tagged catalytically inactive DUSP2 with mutated KIM (DUSP2CSKIM-HA) (human) (UniProt Q05923). The test is described as above.
For test [10], the target named is HA-tagged catalytically inactive DUSP2 (DUSP2CS-HA) (human) (UniProt Q05923). The test is described as above.
The target in test [11] is FLAG-tagged wild-type ERK3 (ERK3wt) (UniProt Q16659). The experiment in a line: co-IP; NCI-H1299 cells co-transfected with FLAG-tagged ERK3 or myc-tagged ERK4 and tagged DUSP2CS; anti-FLAG or anti-myc immunoprecipitation; DUSP2 detected with a DUSP2 specific antibody.
Test [12] addresses FLAG-tagged FRIEDE ERK3 mutant (ERK3I334K) (UniProt Q16659). The test is described as above.
The target of test [13] is FLAG-tagged common-docking site ERK3 mutant (ERK3D324N) (UniProt Q16659). Described as above.

As to “ERK3 (wild-type), GAL4 activation domain fusion (from UniProt Q16659 1-721) (enzyme)”, the binding entry in test [1] is on record as “no binding”.
Same read-out and setting: the same measure for “ERK4 (wild-type), GAL4 activation domain fusion (from UniProt P31152 1-587) (enzyme)”: “no binding”.
Take “HA-tagged catalytically inactive DUSP2 (DUSP2CS-HA) (from UniProt Q05923) (enzyme)”: the binding entry in test [2] is “binds”; in test [3] it was “binds”; in [4] it was “no binding”; in test [5], “binds”.
Regarding “endogenous ERK3 (from UniProt Q16659 1-721) (enzyme)”, the binding entry in [6] and in [7] was “binds” in each case.
On to “endogenous ERK4 (from UniProt P31152 1-587) (enzyme)”, for which the binding entry in test [8] is given as “binds”; in test [9] it was “no binding”; in test [10] it was “binds”.
Regarding “myc-tagged catalytically inactive mutant of DUSP2 (DUSP2CS-Myc) (from UniProt Q05923) (enzyme)”, the values for the binding entry in test [11], in test [12] and in test [13] were “binds”, “binds” and “no binding”, respectively.
